The text below walks through data of PubChem BioAssay AID2685 (National Center for Advancing Translational Sciences (NCATS), 2010).

Each structure is given as a SMILES string. The list shows a part of the results. These are further read-outs of the screen, such as a control signal, another cell line or another target. No call is given for them. Most of these compounds were active or inconclusive in the main read-out, so they are no random draw. The note in brackets gives the kind of curve behind each potency; many fits are weak.

The nature of the test: qHTS Assay for Lipid Storage Modulators in Drosophila S3 Cells.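 For cell number change: cells counted by Cell Tracker Red CMTPX staining in the red channel.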 As to conditions: BODIPY lipid droplet fluorescence, 18-24 h; for cell number change: measured here: cell count max response, cells fed with added oleic acid. Summed up: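 Drosophila S3 cells loaded with oleic acid (400 uM, as added) and compounds at several concentrations; lipid droplets imaged by 488-nm laser-scanning cytometry, 500–530 nm intensity and object ratio to cell channel. Percent activity normalized to 20 uM Triacsin C.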
In general terms: qHTS replaces the single test concentration by a dilution series.

Setting [1] is: measured here: lipid fluorescence (Fed channel) AC50, cells fed with added oleic acid.
Setting [2] is: measured here: cell number channel AC50, cells fed with added oleic acid.

For `Cc1ccc(C)c(NC(=S)N2CCN(c3ccccn3)CC2)c1`, the cell number change was 2.47%. The AC50 under setting [1] is 29.1 µM [rising, single point].
On to `Cc1cc(C)cc(OCC(O)Cn2nc(C)cc2C)c1` (stereo not given), for which the cell number change was 19.1%.
Consider `CCOC(CNC(=O)CCc1c(C)nc2nc(C)nn2c1C)OCC`, for which the cell number change was -13.3%. For the same compound, under setting [2], the concentration at half-maximal activity (AC50) was 2.06 µM [falling, partial curve, poor fit]. Besides, the AC50 under setting [1] is 29.1 µM [falling, single point].
For `NC(=O)NC(=O)CN1C(=O)NC(c2ccccc2)(c2ccccc2)C1=O`, the cell number change came to 13.7%. Moreover, under setting [1], the concentration at half-maximal activity (AC50) is 29.1 µM [rising, single point].
Turning to `CC(Sc1ncnc2c1cnn2-c1ccccc1)C(=O)Nc1ccc(N2CCOCC2)cc1` (stereo not given), the cell number change was determined as 6.88%. The AC50 under setting [1] was 0.103 µM [rising, full curve, poor fit].
Turning to `COc1ccc(NC(C)=O)cc1NC(=O)CSc1nnc(-c2ccccc2)n1N`, the cell number change was determined as 13.5%. Moreover, the AC50 under setting [1] is 2.06 µM [falling, partial curve].
For `CS(=O)(=O)NCCSCc1c(Cl)cccc1Cl`, the cell number change worked out at 11.1%. The AC50 under setting [1] was 6.51 µM [falling, single point].
Regarding `Cc1ccccc1CSCC(=O)N1CCN(c2ccccc2)CC1`, the AC50 under setting [1] was 5.8 µM [rising, partial curve].
On to `COc1ccc(CNC(=O)COc2cc3c(c4oc(=O)cc(C)c24)CCC(C)(C)O3)cc1OC`, for which the cell number change turned out to be 4.28%. For the same compound, the half-maximal activity concentration (AC50) under setting [1] is 29.1 µM [falling, single point].
As to `CCSc1ncc(Cl)c(C(=O)Nc2ccc(S(=O)(=O)Nc3ncccn3)cc2)n1`, the cell number change was -13.4%.
`COc1ccc(N/C(=C(/C(Cl)=C(Cl)Cl)[N+](=O)[O-])n2nnc3ccccc32)cc1`: the cell number change came to 17.9%. Further, under setting [2], the half-maximal activity concentration (AC50) is 0.731 µM [rising, full curve, poor fit].
As for `O=C(Nc1ccccc1N1CCCCC1)c1cccc(OC(F)F)c1`, the cell number change was -17.9%.
As to `COc1ccc(N2CCN(CC(O)COc3ccccc3[N+](=O)[O-])CC2)cc1` (stereo not given), the cell number change was 33.3%. The AC50 under setting [1] is 8.2 µM [rising, partial curve].
In the case of `CC12CC3CC(C)(C1)CC(CN1CCOCC1)(C3)C2`, the cell number change was -1.06%. Further, the AC50 under setting [1] is 23.1 µM [falling, single point].
As for `Cc1cccc(C(=O)Nc2nccs2)c1[N+](=O)[O-]`, the cell number change was -21.5%.
With `COc1ccc(C(=O)N/C(=C\c2cccc3ccccc23)C(=O)NCCc2c[nH]c3ccccc23)cc1OC`, the cell number change was -19.2%. The concentration at half-maximal activity (AC50) under setting [1] was 4.61 µM [falling, partial curve, poor fit].
Turning to `CCN1CCN(c2nc(-c3ccccn3)nc3ccccc23)CC1`, the cell number change was found to be 22.9%. Moreover, under setting [1], the AC50 is 0.00461 µM [rising, full curve, poor fit].
For `Cc1nc2nc(-c3cccnc3)[nH]n2c(=O)c1C`, the cell number change stood at 18.1%. Under setting [1], the AC50 was 18.4 µM [falling, partial curve].
For the compound `CCOC(=O)Cn1nnnc1CN(Cc1ccc(OC)cc1)Cc1cc2cc(C)cc(C)c2[nH]c1=O`, the concentration at half-maximal activity (AC50) under setting [2] is 0.92 µM [rising, full curve] and the AC50 under setting [1] is 2.06 µM [rising, partial curve].
As to `CCC(=O)NC(c1cccs1)c1cc(Cl)c2ccccc2c1O` (stereo not given), the cell number change came out at 14.9%. Besides, under setting [1], the half-maximal activity concentration (AC50) was 0.411 µM [falling, partial curve].
For `O=C(CN1CCN(c2ccccc2F)CC1)Nc1ccccc1F`, the cell number change was -4.07%. Moreover, the AC50 under setting [2] is 6.51 µM [falling, single point].
As for `O=C(OCc1ccccc1F)c1cc2ccccc2cc1O`, the cell number change came out at 13.5%.
`CC1(C)C2CCC1(C)C(OCCNCCOC(=O)Nc1ccccc1)C2` (stereo not given): the cell number change was -58.7%. Also, the concentration at half-maximal activity (AC50) under setting [1] is 29.1 µM [falling, single point].
As to `O=C(COC(=O)c1ccccc1NS(=O)(=O)c1cc([N+](=O)[O-])ccc1Cl)c1ccccc1`, the cell number change is -35.7%. Further, under setting [1], the half-maximal activity concentration (AC50) was 20.6 µM [falling, single point].
In the case of `CCOC(=O)c1sc(NC(=O)CSc2nnnn2-c2ccc(C)cc2C)nc1C`, the cell number change came to 27.4%. Under setting [2], the AC50 was 0.082 µM [rising, full curve, poor fit].
Consider `N#CC1=C(N)OC2=C(C(=O)CC(c3ccccc3)C2)C1c1cccnc1` (stereo not given), for which the cell number change was -8.6%. Further, the concentration at half-maximal activity (AC50) under setting [1] is 5.17 µM [rising, partial curve].
As to `Cc1cccc(NC(=O)COc2coc(CN3CCN(c4ccccc4)CC3)cc2=O)c1C`, the cell number change is -50%. Under setting [2], the half-maximal activity concentration (AC50) is 8.2 µM [falling, partial curve, poor fit].
`O=C(NCCC1=CCCCC1)C1CCN(Cc2cnn(-c3ccccc3)c2-n2cccc2)CC1`: the cell number change is 1.96%. Also, the half-maximal activity concentration (AC50) under setting [2] is 0.206 µM [falling, full curve, poor fit]. For the same compound, the AC50 under setting [1] is 0.731 µM [falling, full curve, poor fit].
Consider `CCc1ccc(NC(=O)CSc2ccc(-c3cccnc3)nn2)cc1`, for which the cell number change came to 35.7%. Also, the AC50 under setting [1] was 0.708 µM [rising, full curve, poor fit].
For `N/C(=N\OC(=O)c1ccc(Cl)cc1Cl)c1cccnc1`, the cell number change was found to be 23.3%. Moreover, the concentration at half-maximal activity (AC50) under setting [1] was 4.61 µM [rising, partial curve].
`CCC(NC(=O)Nc1ccc(O)cc1)(C(F)(F)F)C(F)(F)F`: the cell number change was -21%. Also, under setting [1], the AC50 was 1.84 µM [falling, full curve, poor fit].
In the case of `O=C(NCCCn1cccn1)C1CCC(=O)N(CCc2ccccc2)C1` (stereo not given), the cell number change is 45.9%. Further, the half-maximal activity concentration (AC50) under setting [2] is 4.61 µM [rising, partial curve].
On to `O=C(CN1CCOCC1)Nc1ccc2c(c1)OC(F)(F)O2`, for which the cell number change is -16.5%. Further, the AC50 under setting [1] is 3.26 µM [falling, full curve, poor fit].
Regarding `CC1CCCCC1NC(=O)c1cccc(S(=O)(=O)N2CCN(Cc3ccccc3)CC2)c1` (stereo not given), the AC50 by setting is: under setting [2], 1.64 µM [falling, partial curve]; under setting [1], 0.731 µM [rising, single point].
Turning to `COc1ccc(C)cc1NC(=O)C(c1ccccc1)N1CCN(CC(=O)N2CCOCC2)CC1` (stereo not given), the AC50 is, setting by setting: under setting [2], 6.51 µM [rising, single point]; under setting [1], 6.51 µM [rising, single point].
`Cc1nc2ccccn2c1-c1ccnc(=S)[nH]1`: the cell number change was 15.9%. Also, the AC50 under setting [2] was 6.51 µM [rising, single point]. Further, the AC50 under setting [1] is 4.11 µM [rising, partial curve].
Consider `Cc1ccc2c(c1)C(c1ccccc1)N(C(=O)c1ccc(F)cc1)CC(=O)N2` (stereo not given), for which the cell number change was determined as 18%. Under setting [1], the AC50 was 4.61 µM [rising, partial curve, poor fit].
Regarding `Cc1ccc(-n2nc3c(c2NC(=O)c2cccs2)CS(=O)(=O)C3)c(C)c1`, the cell number change was 28.7%.
Turning to `CCCCCC(=O)Nc1cccc(C2=NOC3(C2)C[C@@H](C(N)=O)N(C(=O)c2ccc(OC)cc2)C3)c1` (stereo not given in full), the cell number change is 25.2%. Also, under setting [1], the AC50 was 13 µM [rising, single point].
As to `CN(C)c1ccc(/C=N/NC(=O)CNC(=O)c2ccncc2)cc1`, the cell number change came to 11.2%. Under setting [2], the AC50 was 3.66 µM [rising, partial curve, poor fit]. Besides, the AC50 under setting [1] is 4.61 µM [rising, partial curve, poor fit].
Consider `COc1ccc(NC(=O)COc2ccc(C(=O)OCC(=O)N(C)C3CCS(=O)(=O)C3)cc2OC)cc1` (stereo not given), for which the cell number change was 35.7%. In addition, the half-maximal activity concentration (AC50) under setting [2] is 9.2 µM [rising, partial curve, poor fit]. Moreover, the AC50 under setting [1] is 29.1 µM [rising, single point].
As for `N#Cc1c(Oc2ccc3ccccc3c2)sc(C(=O)c2ccccc2)c1N`, the cell number change is -4.58%. Moreover, under setting [1], the AC50 is 7.31 µM [falling, single point].
Regarding `CC(O)Cn1nc([N+](=O)[O-])nc1N` (stereo not given), the cell number change came out at 28.3%.
Consider `COc1cccc(C(C#N)N2CCOCC2)c1` (stereo not given), for which the cell number change is -51.7%. Besides, under setting [1], the AC50 was 2.06 µM [rising, partial curve].
Consider `NS(=O)(=O)c1ccc(O)c(NC(=O)c2ccc([N+](=O)[O-])cc2)c1`, for which the cell number change is -58%. Moreover, under setting [2], the AC50 was 18.4 µM [falling, single point].
`CCOC(=O)c1c(C)[nH]c(C)c1S(=O)(=O)NCC1CCN(Cc2cccc(F)c2)CC1`: the cell number change was -6.65%. Also, under setting [1], the concentration at half-maximal activity (AC50) was 29.1 µM [rising, single point].
Regarding `CCOC(=O)c1ccccc1NC(=O)c1ccccc1NS(C)(=O)=O`, the cell number change came to 1.65%. Also, the half-maximal activity concentration (AC50) under setting [1] is 5.17 µM [rising, single point].
For the compound `Cn1nc(-c2ccccc2)c(-c2nc(-c3cccc(C(F)(F)F)c3)no2)c1Cl`, the cell number change is 49.8%. For the same compound, the concentration at half-maximal activity (AC50) under setting [2] is 0.731 µM [rising, full curve]. The AC50 under setting [1] is 1.03 µM [rising, full curve].
On to `Cc1nnc(C)n1/N=C/c1ccc(-c2ccccc2Cl)o1`, for which the cell number change turned out to be 3.75%. Further, the concentration at half-maximal activity (AC50) under setting [1] is 7.31 µM [rising, single point].
On to `C=CCn1c(SCC(=O)NCC2CCCO2)nnc1-c1ccncc1` (stereo not given), for which the cell number change is -3.24%.
Take `C(=N/Nc1cc(N2CCOCC2)nc(N2CCOCC2)n1)/c1ccccc1`: the cell number change came out at 19.1%. Further, under setting [1], the concentration at half-maximal activity (AC50) is 20.6 µM [rising, single point].
As for `c1cn(CCCNc2ncnc3sc4c(c23)CCC4)cn1`, the cell number change was -3.84%. Further, under setting [1], the half-maximal activity concentration (AC50) is 0.116 µM [rising, full curve, poor fit].
As for `CCC1CN(C(=O)NCc2ccccc2)c2cc(Cl)ccc2O1` (stereo not given), the cell number change worked out at 5.67%. Moreover, the AC50 under setting [1] is 0.116 µM [falling, full curve, poor fit].
In the case of `COc1ccc(CNC(=O)Nc2cccc(C(F)(F)F)c2)cc1OC`, the cell number change was -7.89%. Further, the half-maximal activity concentration (AC50) under setting [1] was 6.51 µM [falling, single point].
With `CCOC(=O)NC(Nc1nc2ccccc2s1)(C(=O)OCC)C(F)(F)F` (stereo not given), the cell number change is -7.3%.
As for `CNC(=O)CSCc1cnn(-c2ccccc2)c1-n1cccc1`, the cell number change is 11.8%. For the same compound, under setting [1], the AC50 was 0.0058 µM [rising, full curve, poor fit].
For `Cc1ccc2cccc(S(=O)(=O)NC3CCS(=O)(=O)C3)c2n1` (stereo not given), the cell number change amounted to 6.56%.
Turning to `COc1ccccc1CCC(=O)Nc1ccc(S(=O)(=O)Nc2nccs2)cc1`, the cell number change is -14.9%. Also, the AC50 under setting [2] was 0.0731 µM [falling, full curve, poor fit].
Take `CCOc1ccc(N(CC(=O)NC2CCCC2)C(=O)CSc2nnc(COc3ccccc3)o2)cc1`: the cell number change worked out at 148%. Besides, the concentration at half-maximal activity (AC50) under setting [2] was 9.2 µM [rising, partial curve]. In addition, the AC50 under setting [1] was 9.2 µM [rising, partial curve].
As for `Cc1cc(C(=O)CCC(=O)N2CCN(S(=O)(=O)c3ccccc3)CC2)c(C)s1`, the half-maximal activity concentration (AC50) under setting [2] is 4.61 µM [falling, partial curve, poor fit].

For orientation: AC50 means the concentration giving half of the maximal activity seen. Read a high AC50 as activity only at high concentration.
